Laboratory results from US20050256081A1, “Tetracycline derivatives for the treatment of ocular pathologies” (priority 2004, published 2005).

Tests used:
[1] = system: corneal neovascularization; assay: Silver nitrate cauterization corneal neovascularization model, single agents (Example 5); format: in vivo, Long Evans pigmented rats; conditions: topical two times daily for 7 days, 7th day; same concentrations as for neovascularization
[2] = system: corneal neovascularization; assay: Silver nitrate cauterization corneal neovascularization model, doxycycline concentrations and pH (Example 4); format: in vivo, Long Evans pigmented rats; conditions: score 0 to +3
Description: Thirty-six eyes belonging to thirty-six male Long Evans pigmented rats (200 g to 250 g) were divided into […] groups. Treated eyes were topically administered doxycycline at the following concentrations and having the indicated pH values: 0.05%^w/v (pH 3.3), 0.1%^w/v (pH 3.1), 1%^w/v (pH 2.3), 2%^w/v (pH 2.1), 2%^w/v (adjusted to pH of 7.4). One eye of each animal served as a treated eye and the other eye served as a non-treated control eye. Artificial corneal bums were induced. All the eyes were examined to exclude any eyes with corneal scars and/or neovascularization prior to induction.
Neovascularization was induced in all eyes using silver nitrate cauterization. The animals were first anesthetized by intraperitoneal injection of a mixture of ketamine hydrochloride (25 mg/kg) with xylazine hydrochloride (5 mg/kg). The cornea was then anesthetized by a drop of 0.5% proparacaine and allowed to dry.
The presence of new vessels (neovascularization) and the extent of new vessel formation was assessed by slit lamp photography and histology. Inhibition of vessel proliferation was evaluated by measuring vessel progression from the outer cornea (corneal limbus) into the cornea. As previously described, it will be appreciated that any reduction of new vessel proliferation and/or regression of existing vessels is therapeutic, and that complete inhibition and/or regression is not required, and also that reduction indudes regression of existing vessels.
Neovascularization was evaluated by an examiner who was blinded as to the treatment groups to minimize the observer bias.
The animals were euthanized in a carbon dioxide chamber under deep general anesthesia. The eyes were enucleated and fixed in 10% formaldehyde.
Corneal neovascularization was assessed by scanning (Cano scan 9900F, Canon, Tokyo Japan) the slit lamp photographs into high resolution digital images. […] The percentage area of the cornea covered by the corneal scar in each eye was also determined. A drawing of corneal blood vessels was made to compare with digital photos and ensure that no vascular area was omitted during calculation of percent area.
Statistical analyses were performed using each animal as an experimental unit with Statistical Analysis System (SPSS 11.5) software. Kruscal-Vallis and Mann-Whitney U Analysis was conducted and treatment means were separated at p<0.05 with least significant difference (LSD) test. A p value <0.05 was considered significant.
For histopathologic evaluation, sedated animals were euthanized with inhaled CO2 and enucleation was performed immediately. […] The eyes were prepared for histological examination using 10% formaldehyde. […] The corneas were then soaked in xylene and paraffin, and later embedded in paraffin and cut at […] for staining with hematoxylin and eosin (H&E) for light microscopy.
Light microscopic examination was performed on every microscopic section.

Compound	Percent Area Of Scar Mean ± SD [1] [%]	Burn stimulus score (Mean ± SD) ([2]; 0.05% w/v doxycycline, pH 3.3)	Burn stimulus score (Mean ± SD) ([2]; 0.1% w/v doxycycline, pH 3.1)	Burn stimulus score (Mean ± SD) ([2]; 1% w/v doxycycline, pH 2.3)	Burn stimulus score (Mean ± SD) ([2]; 2% w/v doxycycline adjusted to pH 7.4)	Burn stimulus score (Mean ± SD) ([2]; 2% w/v doxycycline, pH 2.1)
CC[C@@H]1/C=C(\C)C[C@H](C)C[C@H](OC)[C@H]2O[C@@](O)(C(=O)C(=O)N3CCCC[C@H]3C(=O)O[C@H](/C(C)=C/[C@@H]3CC[C@@H](O)[C@H](OC)C3)[C@H](C)[C@@H](O)CC1=O)[C@H](C)C[C@@H]2OC [ascomycin]	16.7 ± 8.2	–	–	–	–	–
low molecular weight heparin	15.5 ± 2.2	–	–	–	–	–
CC(C(=O)[O-])c1ccc(-c2ccccc2)c(F)c1.O.O.[Na+] (racemic) [flurbiprofen, sodium (±)-2-(2-fluoro-4-biphenylyl)-propionate dihydrate]	18.8 ± 5.2	–	–	–	–	–
CC1c2cccc(O)c2C(=O)C2=C(O)C3(O)C(=O)C(C(N)=O)=C(O)C(N(C)C)C3C(O)C21.O (stereo not drawn) [doxycycline, 4-(dimethylamino)-1,4,4a,5,5a,6,11,12a-octahydro3,5,10,12,12a-pentahydroxy-6-methyl-1,11-dioxo-2-naphthacenecarboxamide monohydrate]	16.7 ± 2.8	2.83 ± 0.4	3 ± 0	2.66 ± 0.51	2.83 ± 0.4	3 ± 0
